Measurements as given in the supplement of paper PMC10060354, “Discovery of a small molecule ligand of FRS2 that inhibits invasion and tumor growth” (Cellular Oncology, 2022).
Single values are uncertain, as repeats are few or missing.

By UniProt entry, the sequences of proteins in these tests, tags left out. Where a name states a change or a piece, a line headed by the entry shows the natural chain unless it says otherwise.
UniProt P51149, whole entry: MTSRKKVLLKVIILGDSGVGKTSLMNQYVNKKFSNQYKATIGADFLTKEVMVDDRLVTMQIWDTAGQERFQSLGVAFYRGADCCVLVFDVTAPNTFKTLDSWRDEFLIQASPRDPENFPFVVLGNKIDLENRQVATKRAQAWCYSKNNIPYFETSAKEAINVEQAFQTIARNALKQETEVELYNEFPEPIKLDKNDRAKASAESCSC
UniProt Q75LS8: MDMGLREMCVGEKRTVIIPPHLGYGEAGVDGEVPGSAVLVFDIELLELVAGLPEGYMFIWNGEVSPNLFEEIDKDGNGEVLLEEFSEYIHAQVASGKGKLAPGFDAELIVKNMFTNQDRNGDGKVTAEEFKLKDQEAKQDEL
UniProt Q96T76: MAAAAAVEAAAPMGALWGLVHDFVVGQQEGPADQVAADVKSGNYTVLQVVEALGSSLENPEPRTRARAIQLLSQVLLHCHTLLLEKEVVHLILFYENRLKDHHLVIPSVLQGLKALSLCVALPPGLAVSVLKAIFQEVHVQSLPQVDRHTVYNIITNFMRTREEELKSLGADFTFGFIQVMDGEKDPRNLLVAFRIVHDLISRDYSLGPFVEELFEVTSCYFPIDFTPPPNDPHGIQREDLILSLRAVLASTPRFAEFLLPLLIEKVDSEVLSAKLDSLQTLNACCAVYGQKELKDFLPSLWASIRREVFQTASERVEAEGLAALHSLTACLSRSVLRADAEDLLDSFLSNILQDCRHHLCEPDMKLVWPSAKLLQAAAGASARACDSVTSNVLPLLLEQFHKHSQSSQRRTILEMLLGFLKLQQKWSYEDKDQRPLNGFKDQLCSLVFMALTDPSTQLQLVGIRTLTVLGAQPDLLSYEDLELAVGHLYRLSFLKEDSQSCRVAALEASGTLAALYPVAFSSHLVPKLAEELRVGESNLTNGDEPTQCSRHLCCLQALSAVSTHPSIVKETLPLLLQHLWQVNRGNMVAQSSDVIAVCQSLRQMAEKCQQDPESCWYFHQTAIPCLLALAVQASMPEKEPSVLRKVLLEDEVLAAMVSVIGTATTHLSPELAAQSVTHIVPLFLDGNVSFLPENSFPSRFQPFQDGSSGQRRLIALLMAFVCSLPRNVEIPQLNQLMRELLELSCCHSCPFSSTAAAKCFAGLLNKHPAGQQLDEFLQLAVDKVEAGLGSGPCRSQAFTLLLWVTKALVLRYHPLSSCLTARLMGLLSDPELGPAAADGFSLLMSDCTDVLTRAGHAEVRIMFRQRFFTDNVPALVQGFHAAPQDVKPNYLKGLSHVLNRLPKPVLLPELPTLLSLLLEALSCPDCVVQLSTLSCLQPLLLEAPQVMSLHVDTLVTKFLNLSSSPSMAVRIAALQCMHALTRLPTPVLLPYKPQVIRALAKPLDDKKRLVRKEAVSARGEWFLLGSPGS
UniProt Q9Y5U4: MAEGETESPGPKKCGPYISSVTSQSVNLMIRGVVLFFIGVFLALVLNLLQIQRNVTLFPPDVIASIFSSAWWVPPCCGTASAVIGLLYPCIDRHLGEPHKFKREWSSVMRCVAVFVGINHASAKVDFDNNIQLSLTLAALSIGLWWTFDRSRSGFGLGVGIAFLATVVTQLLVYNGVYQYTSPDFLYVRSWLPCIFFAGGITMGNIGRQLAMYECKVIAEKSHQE
UniProt O94782: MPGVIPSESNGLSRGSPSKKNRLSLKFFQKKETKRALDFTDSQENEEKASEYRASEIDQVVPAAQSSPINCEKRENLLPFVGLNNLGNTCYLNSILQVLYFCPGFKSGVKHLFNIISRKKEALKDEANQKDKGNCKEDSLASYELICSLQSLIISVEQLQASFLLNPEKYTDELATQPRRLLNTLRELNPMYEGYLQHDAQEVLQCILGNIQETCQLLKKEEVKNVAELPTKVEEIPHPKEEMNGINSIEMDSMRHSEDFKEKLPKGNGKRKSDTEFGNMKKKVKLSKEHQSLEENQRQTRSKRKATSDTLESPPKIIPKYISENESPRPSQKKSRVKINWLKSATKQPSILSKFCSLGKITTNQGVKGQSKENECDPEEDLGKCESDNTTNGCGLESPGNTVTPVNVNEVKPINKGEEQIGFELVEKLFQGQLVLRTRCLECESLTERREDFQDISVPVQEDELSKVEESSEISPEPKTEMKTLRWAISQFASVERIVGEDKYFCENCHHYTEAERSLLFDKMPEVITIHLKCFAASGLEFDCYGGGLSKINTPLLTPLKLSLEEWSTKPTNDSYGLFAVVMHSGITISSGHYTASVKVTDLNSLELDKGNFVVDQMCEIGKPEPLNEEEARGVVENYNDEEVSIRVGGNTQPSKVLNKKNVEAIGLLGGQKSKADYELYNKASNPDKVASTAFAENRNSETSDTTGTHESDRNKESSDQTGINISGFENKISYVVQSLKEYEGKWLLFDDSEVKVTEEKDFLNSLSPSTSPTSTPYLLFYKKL
UniProt Q9NRW7: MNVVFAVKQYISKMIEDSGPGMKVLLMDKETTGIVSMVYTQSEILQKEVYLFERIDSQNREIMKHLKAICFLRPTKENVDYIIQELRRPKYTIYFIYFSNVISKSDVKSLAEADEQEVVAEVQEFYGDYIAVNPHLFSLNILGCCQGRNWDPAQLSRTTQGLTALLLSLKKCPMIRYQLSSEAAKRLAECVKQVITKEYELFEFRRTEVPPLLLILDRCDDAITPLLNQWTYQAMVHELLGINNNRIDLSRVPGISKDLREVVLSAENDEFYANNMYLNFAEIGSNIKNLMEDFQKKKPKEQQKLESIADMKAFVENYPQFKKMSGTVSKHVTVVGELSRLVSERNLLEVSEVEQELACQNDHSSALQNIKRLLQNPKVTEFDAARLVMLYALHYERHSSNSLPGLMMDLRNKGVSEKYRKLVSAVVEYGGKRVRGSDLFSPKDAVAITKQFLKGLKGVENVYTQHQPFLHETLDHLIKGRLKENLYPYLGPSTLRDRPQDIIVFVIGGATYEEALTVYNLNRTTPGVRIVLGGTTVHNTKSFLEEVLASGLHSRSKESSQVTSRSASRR
UniProt Q9H8S9: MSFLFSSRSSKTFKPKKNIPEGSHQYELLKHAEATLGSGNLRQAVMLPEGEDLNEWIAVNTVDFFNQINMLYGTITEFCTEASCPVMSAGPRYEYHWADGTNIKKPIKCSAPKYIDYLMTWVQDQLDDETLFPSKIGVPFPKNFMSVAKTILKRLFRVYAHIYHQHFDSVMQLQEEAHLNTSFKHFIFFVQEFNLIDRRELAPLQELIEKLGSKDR
UniProt P50148, whole entry: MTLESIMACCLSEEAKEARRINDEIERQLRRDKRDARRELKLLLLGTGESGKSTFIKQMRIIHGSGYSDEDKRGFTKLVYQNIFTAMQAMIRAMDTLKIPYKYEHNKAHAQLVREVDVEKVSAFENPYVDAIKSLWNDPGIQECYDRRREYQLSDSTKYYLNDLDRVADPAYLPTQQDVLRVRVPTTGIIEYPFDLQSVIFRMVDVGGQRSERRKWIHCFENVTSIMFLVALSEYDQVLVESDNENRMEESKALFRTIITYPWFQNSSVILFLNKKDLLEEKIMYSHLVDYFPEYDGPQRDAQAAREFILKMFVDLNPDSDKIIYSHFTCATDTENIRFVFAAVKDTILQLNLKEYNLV
UniProt Q9Y5N5: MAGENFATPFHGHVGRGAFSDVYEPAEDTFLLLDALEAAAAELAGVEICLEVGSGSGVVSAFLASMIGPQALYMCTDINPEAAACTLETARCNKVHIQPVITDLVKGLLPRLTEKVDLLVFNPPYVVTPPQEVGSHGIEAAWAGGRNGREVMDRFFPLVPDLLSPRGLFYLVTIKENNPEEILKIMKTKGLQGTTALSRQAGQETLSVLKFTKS
UniProt Q7Z6M1: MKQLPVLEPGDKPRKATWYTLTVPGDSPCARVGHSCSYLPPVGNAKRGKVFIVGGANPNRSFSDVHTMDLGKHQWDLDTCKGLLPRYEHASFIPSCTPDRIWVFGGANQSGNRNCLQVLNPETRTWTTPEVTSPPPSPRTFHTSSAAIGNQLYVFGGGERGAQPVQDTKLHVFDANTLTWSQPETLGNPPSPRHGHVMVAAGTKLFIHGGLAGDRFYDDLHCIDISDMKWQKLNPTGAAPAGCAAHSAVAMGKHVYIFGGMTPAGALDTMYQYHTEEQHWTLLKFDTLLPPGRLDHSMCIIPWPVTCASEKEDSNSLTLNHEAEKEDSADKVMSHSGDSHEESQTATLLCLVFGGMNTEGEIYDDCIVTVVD
UniProt Q5T0N5: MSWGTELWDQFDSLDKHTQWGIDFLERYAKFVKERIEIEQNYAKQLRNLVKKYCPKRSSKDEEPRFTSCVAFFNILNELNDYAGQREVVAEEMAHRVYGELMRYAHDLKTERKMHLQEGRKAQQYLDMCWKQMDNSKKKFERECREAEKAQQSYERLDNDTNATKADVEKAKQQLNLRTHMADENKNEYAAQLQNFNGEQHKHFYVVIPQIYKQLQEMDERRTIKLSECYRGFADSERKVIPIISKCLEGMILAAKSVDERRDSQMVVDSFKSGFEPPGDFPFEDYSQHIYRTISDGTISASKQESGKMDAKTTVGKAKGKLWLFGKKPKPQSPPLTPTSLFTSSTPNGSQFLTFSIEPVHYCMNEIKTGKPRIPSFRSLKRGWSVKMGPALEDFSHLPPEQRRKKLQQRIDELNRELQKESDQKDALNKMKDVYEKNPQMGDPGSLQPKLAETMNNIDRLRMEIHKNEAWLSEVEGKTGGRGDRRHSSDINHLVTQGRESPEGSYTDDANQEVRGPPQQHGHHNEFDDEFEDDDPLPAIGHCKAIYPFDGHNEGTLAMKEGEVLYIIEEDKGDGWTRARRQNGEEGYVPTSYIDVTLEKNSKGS
UniProt Q5T7W7: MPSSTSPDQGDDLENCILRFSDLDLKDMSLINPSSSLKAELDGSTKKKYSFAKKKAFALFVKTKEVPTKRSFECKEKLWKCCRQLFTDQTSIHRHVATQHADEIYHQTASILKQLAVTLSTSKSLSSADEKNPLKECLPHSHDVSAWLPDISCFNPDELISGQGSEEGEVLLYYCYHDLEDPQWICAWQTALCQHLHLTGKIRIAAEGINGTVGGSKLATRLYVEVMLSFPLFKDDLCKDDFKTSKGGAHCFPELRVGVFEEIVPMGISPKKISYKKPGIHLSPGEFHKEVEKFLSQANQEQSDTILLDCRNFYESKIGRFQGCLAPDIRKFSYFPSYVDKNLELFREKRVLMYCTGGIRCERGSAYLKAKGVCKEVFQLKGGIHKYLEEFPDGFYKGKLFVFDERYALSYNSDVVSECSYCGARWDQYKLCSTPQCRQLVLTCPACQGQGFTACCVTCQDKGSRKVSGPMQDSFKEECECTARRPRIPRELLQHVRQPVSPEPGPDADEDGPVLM
UniProt P17050: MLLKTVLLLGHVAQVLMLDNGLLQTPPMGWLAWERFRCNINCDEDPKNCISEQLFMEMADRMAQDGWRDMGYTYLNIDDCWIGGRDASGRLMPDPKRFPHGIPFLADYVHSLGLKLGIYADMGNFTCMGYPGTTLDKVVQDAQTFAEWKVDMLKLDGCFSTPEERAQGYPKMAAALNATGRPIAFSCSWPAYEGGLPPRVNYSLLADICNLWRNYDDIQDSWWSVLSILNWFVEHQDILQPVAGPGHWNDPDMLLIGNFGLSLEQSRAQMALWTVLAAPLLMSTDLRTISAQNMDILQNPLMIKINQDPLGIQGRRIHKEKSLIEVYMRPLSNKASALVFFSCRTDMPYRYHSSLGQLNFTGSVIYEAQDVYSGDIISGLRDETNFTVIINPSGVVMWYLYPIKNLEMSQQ
UniProt P46109: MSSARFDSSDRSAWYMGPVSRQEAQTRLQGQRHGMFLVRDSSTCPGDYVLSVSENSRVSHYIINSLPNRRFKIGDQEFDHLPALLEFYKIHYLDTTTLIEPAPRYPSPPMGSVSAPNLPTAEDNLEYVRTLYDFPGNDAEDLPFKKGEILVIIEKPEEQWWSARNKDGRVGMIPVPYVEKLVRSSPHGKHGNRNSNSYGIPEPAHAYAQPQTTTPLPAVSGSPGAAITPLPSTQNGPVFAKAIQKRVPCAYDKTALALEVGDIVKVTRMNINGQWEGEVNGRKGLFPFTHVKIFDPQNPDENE
UniProt Q9HA64: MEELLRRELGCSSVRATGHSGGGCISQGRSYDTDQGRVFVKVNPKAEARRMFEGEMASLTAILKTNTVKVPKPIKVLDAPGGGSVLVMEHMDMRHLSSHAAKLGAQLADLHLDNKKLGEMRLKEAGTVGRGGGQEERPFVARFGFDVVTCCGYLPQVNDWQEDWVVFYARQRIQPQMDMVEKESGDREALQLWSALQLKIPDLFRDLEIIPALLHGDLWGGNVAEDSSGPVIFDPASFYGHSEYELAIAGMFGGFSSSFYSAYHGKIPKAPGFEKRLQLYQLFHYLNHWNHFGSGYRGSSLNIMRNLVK
UniProt Q96AB6: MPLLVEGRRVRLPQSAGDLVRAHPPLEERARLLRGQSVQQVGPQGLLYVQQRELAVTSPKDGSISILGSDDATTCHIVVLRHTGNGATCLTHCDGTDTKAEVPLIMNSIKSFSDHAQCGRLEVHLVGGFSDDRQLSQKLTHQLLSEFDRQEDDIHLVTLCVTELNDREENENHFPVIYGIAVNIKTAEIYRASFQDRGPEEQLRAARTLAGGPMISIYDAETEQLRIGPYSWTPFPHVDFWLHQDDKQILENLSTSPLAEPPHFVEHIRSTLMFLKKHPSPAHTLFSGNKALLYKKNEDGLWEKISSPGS

Compound: [O-][N+](C(C1=C(C(O)=C2)NC(C(C=C3)=CC=C3Cl)C4C1C=CC4)=C2Cl)=O
Assay: melting temperature shift (compound 7 minus DMSO); higher = compound stabilises the protein
Conditions: 10 µM
Method: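 Thermal proteome profiling (TMT mass spectrometry) in intact DAOY medulloblastoma cells or DAOY lysates treated with 10 µM compound 7 or DMSO, heated at 10 temperatures from 40.5 to 73.8 °C for 3 min. Melting curves were fitted with the Bioconductor TPP package, and the melting point difference between compound and vehicle is reported per protein (single curve per condition).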

[1] = system: DAOY cell lysate, treatment time: 20 min, 4 °C
[2] = system: intact DAOY cells, treatment time: 90 min, 37 °C

Target: UniProt Q53S08
- melting temperature shift [1]: 1.25 °C

Target: MRPL33 (UniProt O75394)
- melting temperature shift [1]: 3.66 °C
- melting temperature shift [2]: -2.3 °C

Target: UniProt Q96FL9
- melting temperature shift [1]: 0.858 °C

Target: RAB11B (UniProt Q15907)
- melting temperature shift [1]: 0.018 °C
- melting temperature shift [2]: -0.801 °C

Target: UniProt Q9BXL8
- melting temperature shift [1]: -2.32 °C

Target: CLPX (UniProt O76031)
- melting temperature shift [1]: 0.192 °C
- melting temperature shift [2]: -2.13 °C

Target: EGLN1 (UniProt Q9GZT9)
- melting temperature shift [1]: 0.102 °C
- melting temperature shift [2]: -0.485 °C

Target: RELA (UniProt Q04206)
- melting temperature shift [1]: 0.273 °C
- melting temperature shift [2]: 0.545 °C

Target: ABCB7 (UniProt O75027)
- melting temperature shift [1]: 0.0234 °C
- melting temperature shift [2]: -1.58 °C

Target: MRPS15 (UniProt P82914)
- melting temperature shift [1]: 1.54 °C
- melting temperature shift [2]: -1.03 °C

Target: MED16 (UniProt Q9Y2X0)
- melting temperature shift [1]: -1.05 °C
- melting temperature shift [2]: -1 °C

Target: SGPP1 (UniProt Q9BX95)
- melting temperature shift [1]: 2.13 °C
- melting temperature shift [2]: -2.39 °C

Target: EEF2K (UniProt O00418)
- melting temperature shift [1]: -0.306 °C

Target: RAB7A (UniProt P51149)
- melting temperature shift [1]: 1.11 °C
- melting temperature shift [2]: -1.46 °C

Target: SP100 (UniProt P23497)
- melting temperature shift [1]: 1.19 °C
- melting temperature shift [2]: -1.01 °C

Target: PDE6D (UniProt O43924)
- melting temperature shift [1]: 0.809 °C
- melting temperature shift [2]: 1.36 °C

Target: SH3BP4 (UniProt Q9P0V3)
- melting temperature shift [1]: -0.922 °C
- melting temperature shift [2]: -0.0209 °C

Target: RPS9 (UniProt P46781)
- melting temperature shift [1]: -0.484 °C
- melting temperature shift [2]: -0.97 °C

Target: UniProt Q75LS8
- melting temperature shift [2]: -0.155 °C

Target: PACSIN3 (UniProt Q9UKS6)
- melting temperature shift [1]: -0.196 °C
- melting temperature shift [2]: 0.722 °C

Target: UniProt Q9H4L4
- melting temperature shift [1]: 0.586 °C

Target: MMS19 (UniProt Q96T76)
- melting temperature shift [1]: -0.393 °C
- melting temperature shift [2]: -0.00615 °C

Target: UniProt Q9Y5U4
- melting temperature shift [1]: 2.68 °C

Target: UniProt P35227
- melting temperature shift [2]: 1.3 °C

Target: NFS1 (UniProt Q9Y697)
- melting temperature shift [1]: 0.22 °C
- melting temperature shift [2]: -0.139 °C

Target: C20ORF24 (UniProt Q9BUV8)
- melting temperature shift [1]: -0.371 °C

Target: PSIP1 (UniProt O75475)
- melting temperature shift [1]: 0.783 °C
- melting temperature shift [2]: -1.3 °C

Target: UniProt Q6P1S2
- melting temperature shift [1]: -0.89 °C

Target: KCTD12 (UniProt Q96CX2)
- melting temperature shift [1]: -2.09 °C

Target: MPC2 (UniProt O95563)
- melting temperature shift [1]: 1.63 °C
- melting temperature shift [2]: -0.995 °C

Target: UniProt Q13164
- melting temperature shift [2]: 1.48 °C

Target: PAF1 (UniProt Q8N7H5)
- melting temperature shift [1]: -0.654 °C
- melting temperature shift [2]: -1.27 °C

Target: SIRT1 (UniProt Q96EB6)
- melting temperature shift [1]: -0.132 °C
- melting temperature shift [2]: 0.691 °C

Target: PTPN23 (UniProt Q9H3S7)
- melting temperature shift [1]: 0.174 °C
- melting temperature shift [2]: 1.19 °C

Target: JUP (UniProt P14923)
- melting temperature shift [1]: -0.853 °C

Target: CORO1B (UniProt Q9BR76)
- melting temperature shift [1]: 0.161 °C
- melting temperature shift [2]: 0.535 °C

Target: ZNF830 (UniProt Q96NB3)
- melting temperature shift [1]: 3.03 °C

Target: PDIA3 (UniProt P30101)
- melting temperature shift [1]: 0.486 °C
- melting temperature shift [2]: 0.628 °C

Target: USP1 (UniProt O94782)
- melting temperature shift [1]: -0.372 °C
- melting temperature shift [2]: 1.73 °C

Target: UniProt Q9NRZ5
- melting temperature shift [1]: -1.11 °C

Target: NOTCH2 (UniProt Q04721)
- melting temperature shift [1]: 1.17 °C
- melting temperature shift [2]: 1.74 °C

Target: ZNHIT2 (UniProt Q9UHR6)
- melting temperature shift [1]: 1.51 °C
- melting temperature shift [2]: 1.67 °C

Target: CD55 (UniProt P08174)
- melting temperature shift [1]: -0.967 °C
- melting temperature shift [2]: 2.06 °C

Target: AMD1 (UniProt P17707)
- melting temperature shift [1]: 0.353 °C
- melting temperature shift [2]: 0.537 °C

Target: FXN (UniProt Q16595)
- melting temperature shift [1]: 0.551 °C

Target: CIAO1 (UniProt O76071)
- melting temperature shift [1]: -1.02 °C
- melting temperature shift [2]: -0.718 °C

Target: HMBS (UniProt P08397)
- melting temperature shift [1]: -0.344 °C
- melting temperature shift [2]: 0.899 °C

Target: VPS45 (UniProt Q9NRW7)
- melting temperature shift [1]: -0.831 °C
- melting temperature shift [2]: -0.0211 °C

Target: HEATR6 (UniProt Q6AI08)
- melting temperature shift [1]: -1.57 °C

Target: MAP7D1 (UniProt Q3KQU3)
- melting temperature shift [1]: -0.0135 °C
- melting temperature shift [2]: -0.0392 °C

Target: PSMF1 (UniProt Q92530)
- melting temperature shift [1]: -0.141 °C
- melting temperature shift [2]: -0.525 °C

Target: UniProt Q00872
- melting temperature shift [2]: -0.667 °C

Target: RQCD1 (UniProt Q92600)
- melting temperature shift [1]: -0.626 °C
- melting temperature shift [2]: 0.391 °C

Target: UniProt P21980
- melting temperature shift [1]: -0.626 °C
- melting temperature shift [2]: 0.0299 °C

Target: JAK3 (UniProt P52333)
- melting temperature shift [1]: 1.69 °C

Target: DBR1 (UniProt Q9UK59)
- melting temperature shift [1]: -0.555 °C
- melting temperature shift [2]: 0.169 °C

Target: UniProt Q9Y584
- melting temperature shift [1]: 1.36 °C

Target: CRYZ (UniProt Q08257)
- melting temperature shift [1]: -0.423 °C
- melting temperature shift [2]: -0.621 °C

Target: DTYMK (UniProt P23919)
- melting temperature shift [1]: -0.858 °C
- melting temperature shift [2]: -3.04 °C

Target: ATP2B4 (UniProt P23634)
- melting temperature shift [1]: 0.914 °C
- melting temperature shift [2]: -1.76 °C

Target: UniProt Q9H8S9
- melting temperature shift [2]: 0.236 °C

Target: UniProt Q01628
- melting temperature shift [1]: 2.61 °C

Target: ZC3H4 (UniProt Q9UPT8)
- melting temperature shift [1]: 1.06 °C

Target: NVL (UniProt O15381)
- melting temperature shift [1]: -0.346 °C

Target: MRPS25 (UniProt P82663)
- melting temperature shift [1]: -1.34 °C
- melting temperature shift [2]: 0.221 °C

Target: TFRC (UniProt P02786)
- melting temperature shift [1]: 2.06 °C
- melting temperature shift [2]: -0.0613 °C

Target: PRKAA2 (UniProt P54646)
- melting temperature shift [1]: -0.309 °C
- melting temperature shift [2]: 3.34 °C

Target: UniProt Q15173
- melting temperature shift [2]: -0.534 °C

Target: SF3B3 (UniProt Q15393)
- melting temperature shift [1]: -0.195 °C
- melting temperature shift [2]: 0.947 °C

Target: GNAQ (UniProt P50148)
- melting temperature shift [1]: 1.5 °C
- melting temperature shift [2]: -1.42 °C

Target: UniProt Q9Y5N5
- melting temperature shift [1]: -1.24 °C
- melting temperature shift [2]: 1.21 °C

Target: ECHS1 (UniProt P30084)
- melting temperature shift [1]: 0.189 °C
- melting temperature shift [2]: -0.713 °C

Target: RABEPK (UniProt Q7Z6M1)
- melting temperature shift [1]: -1.07 °C
- melting temperature shift [2]: -0.549 °C

Target: UniProt Q9UGY1
- melting temperature shift [1]: 1.39 °C
- melting temperature shift [2]: -0.182 °C

Target: UniProt Q9P0P8
- melting temperature shift [1]: -3.08 °C
- melting temperature shift [2]: -0.691 °C

Target: DSCC1 (UniProt Q9BVC3)
- melting temperature shift [1]: 0.183 °C
- melting temperature shift [2]: 0.717 °C

Target: FAR1 (UniProt Q8WVX9)
- melting temperature shift [1]: 0.552 °C
- melting temperature shift [2]: 0.0883 °C

Target: ENAH (UniProt Q8N8S7)
- melting temperature shift [1]: -0.638 °C
- melting temperature shift [2]: -0.34 °C

Target: BABAM1 (UniProt Q9NWV8)
- melting temperature shift [1]: -0.214 °C
- melting temperature shift [2]: -1.08 °C

Target: FNBP1L (UniProt Q5T0N5)
- melting temperature shift [1]: 0.87 °C
- melting temperature shift [2]: -0.242 °C

Target: TSTD2 (UniProt Q5T7W7)
- melting temperature shift [1]: -0.704 °C

Target: UniProt Q9GZQ8
- melting temperature shift [1]: -0.399 °C
- melting temperature shift [2]: -0.00167 °C

Target: NAGA (UniProt P17050)
- melting temperature shift [2]: 0.307 °C

Target: UniProt Q53HV7
- melting temperature shift [1]: -1.6 °C
- melting temperature shift [2]: -0.0941 °C

Target: ALDH4A1 (UniProt P30038)
- melting temperature shift [1]: -0.351 °C
- melting temperature shift [2]: -1.53 °C

Target: CRKL (UniProt P46109)
- melting temperature shift [1]: -0.514 °C
- melting temperature shift [2]: 0.113 °C

Target: UniProt P61812
- melting temperature shift [1]: 0.968 °C
- melting temperature shift [2]: 0.962 °C

Target: UniProt Q96BX8
- melting temperature shift [1]: 0.369 °C
- melting temperature shift [2]: -0.518 °C

Target: MAP4 (UniProt P27816)
- melting temperature shift [1]: -1.33 °C

Target: FN3KRP (UniProt Q9HA64)
- melting temperature shift [1]: -0.978 °C
- melting temperature shift [2]: -3.71 °C

Target: UniProt Q96AB6
- melting temperature shift [1]: 0.419 °C
